Experimental data taken from US8877763B2, “Substituted pyridopyrimidine compounds and their use as FLT3 inhibitors” (Genosco, priority 2012, dated 2014).

Tested on: MV4-11 cells expressing human FLT3-ITD
Assay: Cell viability assay: inhibition of FLT3-ITD-positive cells (ATPLite)
Type: cell-based
Conditions: MV4-11, 72 h, 72 hour incubation
Procedure: Compounds of the invention were tested for cell viability effect on MV4-11 cells. For cell viability assay, MV4-11 cells expressing human FLT3-ITD were obtained from the American Type Culture Collection (ATCC, Manassas, Va.). This cell line was maintained with an Roswell Park Memorial Institute (RPMI) medium (HyClone™) containing 10 bovine calf serum (BCS; Hyclone™) supplemented iron. The MV4-11 cells were seeded at 2×10^4 cells in 96-well culture plates, and serially diluted compound was then added. After a 72 hour incubation period at 37° C., cell viability was measured using the ATPLite 1 step assay (Perkin-Elmer™) that is based on the quantification of ATP from viable cells. CellTiter Aqueous assay (Promega™) was also performed in parallel as an orthogonal assay. IC50 values were calculated using nonlinear regression and defined as the concentration needed for a 50 reduction in luminescence or absorbance treated versus untreated control cells (Prism™ Software).

SMILES: CO[C@@H]1[C@H](N(C)C(=O)c2ccccc2)C[C@H]2O[C@]1(C)n1c3ccccc3c3c4c(c5c6ccccc6n2c5c31)C(=O)NC4 [PKC-412, Midostaurin, reference compound]
- IC50: 3.2 nM
